Source: the supplement of paper PMC6119338
± gives the standard deviation of the averaged measurements. The list shows a part of the results. Single values are uncertain, as repeats are few or missing.

Each molecule was assayed on Plasmodium berghei sporozoites (assay: residual sporozoite gliding motility relative to DMSO control; higher = less inhibition of motility). Conditions: 10 µM; incubation time 30 min.
Experimental: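 GFP-expressing Plasmodium berghei salivary gland sporozoites (about 2000 per well, 384-well plate, RPMI with 3% BSA) were incubated 30 min with MMV Malaria Box compounds at 10 uM, then imaged at 1 Hz for 30 s. Sporozoites moving more than one parasite length were counted manually and expressed as percentage residual motility relative to DMSO controls. The pilot screen was a single assay per compound; apparent hits were repeated up to two more times. 'No observable inhibition' in the pilot screen is encoded as inactive (>50% residual, active false), a coarse placeholder rather than a measured value.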

Row | SMILES | residual sporozoite gliding motility
1 | COc1ccccc1CNC(=O)C1c2ccccc2C(=O)N(CC(C)C)C1c1cccs1 (stereo not given) | > 50%
2 | Clc1ccc2c(N3CCCC3)ccnc2c1 | > 50%
3 | O=C(Nc1cccc(-c2nc3ccccc3[nH]2)c1)c1cccc(NC(=O)c2ccco2)c1 | > 50%
4 | c1ccc(/C2=N/c3ccccc3/N=C(/c3ccccc3)c3ccccc32)cc1 | > 50%
5 | COc1cccc(Nc2nc(NCCO)c3ccccc3n2)c1 | > 50%
6 | CCN1CCN(Cc2ccc(NC(=O)c3cc4ccc5cccnc5c4[nH]3)cc2)CC1 | > 50%
7 | CCOc1ccc2nc(C)cc(Nc3ccc(Br)cc3)c2c1 | > 50%
8 | Cc1sc(NC(=O)c2ccco2)c(C(c2cccnc2)N2CCC(Cc3ccccc3)CC2)c1C (stereo not given) | > 50%
9 | COc1cc2cc(C(=O)Nc3ccccc3)c(N)nc2cc1OC | > 50%
10 | Cc1ccc(Nc2nc(-c3ccccn3)cs2)cc1 | > 50%
11 | Cc1ccnc(NC(c2cccc(OCc3ccccc3)c2)c2ccc3cccnc3c2O)c1 (stereo not given) | > 50%
12 | CC(C)CNC(=O)c1c(N)n(CCc2ccccc2F)c2nc3ccccc3nc12 | > 50%
13 | c1ccc(CNc2nc(Nc3ccccc3)nc3ccccc23)cc1 | > 50%
14 | CCOC(=O)C1=C(C)N=c2sc(=Cc3ccccc3O)c(=O)n2C1c1ccc(OC)c2ccccc12 (stereo not given) | > 50%
15 | COc1cccc(C=Cc2nc(=O)c3ccccc3o2)c1OC | > 50%
16 | COc1ccc(C(=O)C(CCC(CNC(C)(C)C)C(=O)c2ccc(OC)cc2)CNC(C)(C)C)cc1 (stereo not given) | > 50%
17 | CSC1=NC(=Nc2c(C)cccc2C)C2(CCC(C(C)(C)C)CC2)N1c1ccc(Cl)cc1 (stereo not given) | > 50%
18 | CCOC(=O)c1c(NC(=O)c2ccccc2)sc2c(O)c(CN(CC)CC)ccc12 | > 50%
19 | c1ccc2cc3c(Nc4ccc(N5CCOCC5)cc4)ccnc3cc2c1 | > 50%
20 | O=C(Nc1cccc(C2=NCCN2)c1)Nc1cccc(C2=NCCN2)c1 | > 50%

Row | SMILES | residual sporozoite gliding motility
21 | COc1ccc(CCN2C(=O)c3[nH]nc(-c4cc(Cl)c(C)cc4O)c3C2c2ccccc2F)cc1 (stereo not given) | > 50%
22 | Cc1ccc(S(=O)(=O)c2c(COC(=O)c3cccc(C)c3)c(-c3ccccc3)nn2C)cc1 | > 50%
23 | CNCCCNc1ccnc2cc(Cl)ccc12 | > 50%
24 | CCCCC(O)(c1ccc(Cl)cc1)C(CN1CCOCC1)c1ccc(Cl)cc1 (stereo not given) | > 50%
25 | Cc1cc(C=C2SC(=Nc3ccccc3)N(C3CCCC3)C2=O)c(C)n1-c1ccc(Cl)cc1 | > 50%
26 | CC(C)(C)c1ccc(O)c(CNC2CCCCC2)c1 | > 50%
27 | CCOC(=O)c1cnc2ccc(OC)cc2c1Nc1ccc(N2CCN(C)CC2)cc1 | > 50%
28 | CCCN(CCC)CCCNC(=O)c1cc2c(-c3ccc(OC)c(OC)c3)nn(C)c2s1 | > 50%
29 | CCCCCCOC(=O)C1=C(C)NC(=O)NC1c1ccccc1F (stereo not given) | > 50%
30 | O=C(Nc1ccc(F)c(Cl)c1)Nc1ccc(Cl)c(Cl)c1 | 22 ± 6.6%
31 | COc1ccc(-c2c(C)nn3c(N)c(C#N)cnc23)cc1OC | > 50%
32 | COc1ccc(Nc2cc(C)nc(NCc3ccccc3)n2)cc1 | > 50%
33 | CCOC(=O)c1cnc2ccc(Cl)cc2c1NCCCN(C)C | > 50%
34 | O=C(NC1CCCCC1)C(c1cccs1)N(CCc1ccccc1)C(=O)c1ccco1 (stereo not given) | > 50%
35 | CCOC(=O)C1CCN(C(=O)CN2C(=O)c3ccccc3C2c2c[nH]c3ccccc23)CC1 (stereo not given) | > 50%
36 | COc1ccc(C)c2sc(N(Cc3cccnc3)C(=O)c3ccc(C#N)cc3)nc12 | > 50%
37 | COc1ccccc1CNC(=O)CCn1c(=O)[nH]c2ccccc2c1=O | > 50%
38 | CN1c2ccccc2N(C)C1c1ccc2c(c1)OCO2 | > 50%
39 | Cc1cc(Nc2ccc(Cl)cc2)n2nc(C(F)(F)F)nc2n1 | > 50%
40 | FC(F)(F)c1ccc(Nc2nnnc3ccccc23)cc1 | > 50%
